Every entry is a combination with lapatinib at 4 µM: CS(=O)(=O)CCNCc1ccc(-c2ccc3ncnc(Nc4ccc(OCc5cccc(F)c5)c(Cl)c4)c3c2)o1

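The test systems are human melanoma cell lines, treated with a pair of drugs for 72 h and then stained and imaged. The read-out is the fraction of cleaved-PARP-positive nuclei, in % of that fraction in the DMSO control; 200 means twice the control level of this apoptosis marker. Concentrations were fixed for each drug; these are the higher of two levels. The file gives one value for each pair and line, without errors, so small differences may be noise. The marker varies much from line to line, for technical or biological reasons.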
Only some of the drugs and lines screened are listed, without regard to their results.

Second drug	SK-MEL-5
CN1CCN(c2ccc3nc(-c4c(N)c5c(F)cccc5[nH]c4=O)[nH]c3c2)CC1 at 0.5 µM	194
Oc1nc(-c2ccc(C(F)(F)F)cc2)nc2c1CSCC2 at 10 µM	111
O=c1[nH]nc(Sc2ncc([N+](=O)[O-])s2)n1-c1ccc2c(c1)OCCO2 at 1 µM	162
O=C(O)c1ccc(-c2c[nH]c3ncc(-c4ccccc4)cc23)cc1C1CCCC1 at 0.8 µM	168
CC(C)CCN1c2nc(Nc3cc(F)c(O)c(F)c3)ncc2N(C)C(=O)C1C (configuration not stated) at 1 µM	278
CCN(CC)CCNC(=O)c1c(C)[nH]c(/C=C2\C(=O)Nc3ccc(F)cc32)c1C at 2 µM	2370
Cc1cc(SCc2sc(-c3ccc(C(F)(F)F)c(F)c3)nc2C)ccc1OCC(=O)O at 10 µM	248
O=C(O)c1ccc2c(c1)nc(Nc1cccc(Cl)c1)c1ccncc12 at 2 µM	319
C[C@]12O[C@H](C[C@]1(O)CO)n1c3ccccc3c3c4c(c5c6ccccc6n2c5c31)CNC4=O at 0.02 µM	129
CN(C)S(=O)(=O)c1ccc2c(c1)/C(=C/c1cc3c([nH]1)CCCC3)C(=O)N2 at 2 µM	226
Cn1cnc2c(F)c(Nc3ccc(Br)cc3Cl)c(C(=O)NOCCO)cc21 at 0.075 µM	221
c1cc(-c2cnn3cc(-c4ccc(OCCN5CCCCC5)cc4)cnc23)ccn1 at 2 µM	328
COc1ccc(-c2ccc3c(N4CCOCC4)nc(N4C[C@@H](C)O[C@@H](C)C4)nc3n2)cc1CO at 0.1 µM	89.2
C/C(O)=C(\C#N)C(=O)Nc1cc(Br)ccc1Br at 10 µM	140
C[C@@H]1CCN(C(=O)CC#N)C[C@@H]1N(C)c1ncnc2[nH]ccc12 at 5 µM	75.2

The last 2 entries again:

- C/C(O)=C(\C#N)C(=O)Nc1cc(Br)ccc1Br at 10 µM : SK-MEL-5: 140
- C[C@@H]1CCN(C(=O)CC#N)C[C@@H]1N(C)c1ncnc2[nH]ccc12 at 5 µM : SK-MEL-5: 75.2

From a melanoma drug combination screen (doi:10.1371/journal.pone.0140310); values rounded.